No constants are given. Whether binding was seen depends on the method and setting. Binding seen in cells or lysates may run through a third protein. Some binding calls cover weakened binding; strength is not graded here. Sequences can lack the tags named with a protein.

This test has as its target T1, HAM1-6xHis (A. thaliana) (UniProt Q9FLF7).
T1 sequence: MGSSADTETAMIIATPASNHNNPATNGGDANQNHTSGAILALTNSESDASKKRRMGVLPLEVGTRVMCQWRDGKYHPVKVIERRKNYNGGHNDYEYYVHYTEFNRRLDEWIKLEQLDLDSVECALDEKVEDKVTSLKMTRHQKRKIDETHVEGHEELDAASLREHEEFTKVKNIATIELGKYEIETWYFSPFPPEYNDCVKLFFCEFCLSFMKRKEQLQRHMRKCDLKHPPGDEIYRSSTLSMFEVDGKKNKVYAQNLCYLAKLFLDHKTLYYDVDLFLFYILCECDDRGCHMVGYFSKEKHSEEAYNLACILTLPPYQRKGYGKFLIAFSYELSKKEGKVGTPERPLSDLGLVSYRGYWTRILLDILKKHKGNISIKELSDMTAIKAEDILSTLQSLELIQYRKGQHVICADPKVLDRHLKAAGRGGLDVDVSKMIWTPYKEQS
Put plainly: pull-down.

B1: ING2 (protein, UniProt B3H615 1-262)
chain: MAIARTGVYVDDYLEYASTFPAELQRLLNTVRELDERSQSLINQTRQQTKYCLGLASQSSKKGNGNHYNNGGLDEEETIEKMRKEIESSQENALSLCTEKVLLARQAYDLIDSHVKRLDEDLNNFAEDLKQEGKIPPDEPSVLPPLPIVPKAEKRKSFYGTPQPKKIDYRDRDWDRDRDFELMPPPGSNRKDLMPIEEQPIDPNEPTYCVCHQVSFGDMIACDNENCQGGEWFHYTCVGLTPETRFKGKWYCPTCRLLPQSH
For the molecule B1, the binding result was “binds”.

For the origin of these results see publication doi:10.1101/846592.
